In the assay the target is Colobus guereza NPC1 domain C protein (Colobus guereza). Nature of the assay: BLI. For orientation: In BLI a coated tip is dipped into the sample, and binding shifts an interference pattern.

Results are given in words; binding and its absence hold for the method and conditions named. Binding calls can cover weak binding; strength is not graded here.

B1: mAb 548 (anti-human NPC1 domain C monoclonal antibody) (antibody, V domains shown)
VH: EVQLQQSGAELVKPGASVKLSCTASGFNIKDTYMHWVKQRPEEGLEWIGRIDPADGNTEYVPKFQGKATITADTFSNTVYLQLSGLTSEDTAVYYCSRGYYWGQGTTLTVSS
VL: DIQMTQSPASLSASVGETVTITCRASENIYSYLAWYQQKQGKSPQLLVYNAKTLAEGVPSRFSGSGSGTQFSLKINSLQPEDFGIYYCQHHYGSPWAFGGGTKLEIK
Consider B1, for which the binding entry was “binds”.

The values above are taken from patent publication US20200199202A1.
